Results taken from paper PMC6538628.
These are yes or no findings as the source states them, for the method shown. Binding seen in cells or lysates may run through a third protein. Binding calls can cover weak binding; strength is not graded here.

The chains behind the UniProt entries cited, without tags or fusion partners. Where a name states a change or a piece, a line headed by the entry shows the natural chain unless it says otherwise. Residues count along the entry.
UniProt O55005: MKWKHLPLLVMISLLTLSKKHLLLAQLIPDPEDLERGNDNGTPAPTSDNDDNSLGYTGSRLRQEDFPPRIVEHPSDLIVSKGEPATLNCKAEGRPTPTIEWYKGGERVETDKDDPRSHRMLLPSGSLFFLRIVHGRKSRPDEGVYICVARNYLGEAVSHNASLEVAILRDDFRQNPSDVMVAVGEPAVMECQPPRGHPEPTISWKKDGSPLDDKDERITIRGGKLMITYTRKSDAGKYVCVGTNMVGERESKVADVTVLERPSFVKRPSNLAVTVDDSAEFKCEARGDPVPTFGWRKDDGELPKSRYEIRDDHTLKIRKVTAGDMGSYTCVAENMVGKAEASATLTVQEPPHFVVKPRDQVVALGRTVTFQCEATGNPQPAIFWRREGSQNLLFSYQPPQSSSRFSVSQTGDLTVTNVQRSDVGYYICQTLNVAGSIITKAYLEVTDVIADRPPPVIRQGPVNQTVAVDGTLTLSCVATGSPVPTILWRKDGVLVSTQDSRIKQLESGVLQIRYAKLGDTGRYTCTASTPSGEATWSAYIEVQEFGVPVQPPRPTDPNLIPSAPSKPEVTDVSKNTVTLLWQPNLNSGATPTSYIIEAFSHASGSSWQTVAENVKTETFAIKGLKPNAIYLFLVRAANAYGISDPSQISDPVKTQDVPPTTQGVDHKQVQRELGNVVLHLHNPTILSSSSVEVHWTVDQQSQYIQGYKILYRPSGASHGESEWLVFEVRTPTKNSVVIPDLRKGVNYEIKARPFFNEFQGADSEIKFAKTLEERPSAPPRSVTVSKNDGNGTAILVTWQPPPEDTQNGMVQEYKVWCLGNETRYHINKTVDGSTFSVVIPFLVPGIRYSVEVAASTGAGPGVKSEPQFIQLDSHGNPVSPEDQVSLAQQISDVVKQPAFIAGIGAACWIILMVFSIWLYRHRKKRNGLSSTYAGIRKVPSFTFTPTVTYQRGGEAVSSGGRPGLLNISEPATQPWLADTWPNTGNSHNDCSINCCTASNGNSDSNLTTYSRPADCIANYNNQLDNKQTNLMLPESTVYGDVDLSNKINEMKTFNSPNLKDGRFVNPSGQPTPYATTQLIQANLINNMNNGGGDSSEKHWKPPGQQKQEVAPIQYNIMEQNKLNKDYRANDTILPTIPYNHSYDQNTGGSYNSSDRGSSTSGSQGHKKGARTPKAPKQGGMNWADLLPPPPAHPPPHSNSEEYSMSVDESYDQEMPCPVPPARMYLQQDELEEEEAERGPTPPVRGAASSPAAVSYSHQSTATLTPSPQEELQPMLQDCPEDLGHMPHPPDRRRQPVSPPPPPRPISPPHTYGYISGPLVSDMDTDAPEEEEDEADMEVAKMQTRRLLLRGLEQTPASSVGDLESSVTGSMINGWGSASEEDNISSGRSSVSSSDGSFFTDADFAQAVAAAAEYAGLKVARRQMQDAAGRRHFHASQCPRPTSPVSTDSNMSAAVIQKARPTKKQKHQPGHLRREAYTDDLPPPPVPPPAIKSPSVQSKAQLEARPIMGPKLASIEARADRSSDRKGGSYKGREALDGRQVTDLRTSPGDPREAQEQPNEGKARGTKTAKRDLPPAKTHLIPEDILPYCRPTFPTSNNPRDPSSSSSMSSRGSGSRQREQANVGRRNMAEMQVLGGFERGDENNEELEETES
UniProt P35968, residues 20-1356: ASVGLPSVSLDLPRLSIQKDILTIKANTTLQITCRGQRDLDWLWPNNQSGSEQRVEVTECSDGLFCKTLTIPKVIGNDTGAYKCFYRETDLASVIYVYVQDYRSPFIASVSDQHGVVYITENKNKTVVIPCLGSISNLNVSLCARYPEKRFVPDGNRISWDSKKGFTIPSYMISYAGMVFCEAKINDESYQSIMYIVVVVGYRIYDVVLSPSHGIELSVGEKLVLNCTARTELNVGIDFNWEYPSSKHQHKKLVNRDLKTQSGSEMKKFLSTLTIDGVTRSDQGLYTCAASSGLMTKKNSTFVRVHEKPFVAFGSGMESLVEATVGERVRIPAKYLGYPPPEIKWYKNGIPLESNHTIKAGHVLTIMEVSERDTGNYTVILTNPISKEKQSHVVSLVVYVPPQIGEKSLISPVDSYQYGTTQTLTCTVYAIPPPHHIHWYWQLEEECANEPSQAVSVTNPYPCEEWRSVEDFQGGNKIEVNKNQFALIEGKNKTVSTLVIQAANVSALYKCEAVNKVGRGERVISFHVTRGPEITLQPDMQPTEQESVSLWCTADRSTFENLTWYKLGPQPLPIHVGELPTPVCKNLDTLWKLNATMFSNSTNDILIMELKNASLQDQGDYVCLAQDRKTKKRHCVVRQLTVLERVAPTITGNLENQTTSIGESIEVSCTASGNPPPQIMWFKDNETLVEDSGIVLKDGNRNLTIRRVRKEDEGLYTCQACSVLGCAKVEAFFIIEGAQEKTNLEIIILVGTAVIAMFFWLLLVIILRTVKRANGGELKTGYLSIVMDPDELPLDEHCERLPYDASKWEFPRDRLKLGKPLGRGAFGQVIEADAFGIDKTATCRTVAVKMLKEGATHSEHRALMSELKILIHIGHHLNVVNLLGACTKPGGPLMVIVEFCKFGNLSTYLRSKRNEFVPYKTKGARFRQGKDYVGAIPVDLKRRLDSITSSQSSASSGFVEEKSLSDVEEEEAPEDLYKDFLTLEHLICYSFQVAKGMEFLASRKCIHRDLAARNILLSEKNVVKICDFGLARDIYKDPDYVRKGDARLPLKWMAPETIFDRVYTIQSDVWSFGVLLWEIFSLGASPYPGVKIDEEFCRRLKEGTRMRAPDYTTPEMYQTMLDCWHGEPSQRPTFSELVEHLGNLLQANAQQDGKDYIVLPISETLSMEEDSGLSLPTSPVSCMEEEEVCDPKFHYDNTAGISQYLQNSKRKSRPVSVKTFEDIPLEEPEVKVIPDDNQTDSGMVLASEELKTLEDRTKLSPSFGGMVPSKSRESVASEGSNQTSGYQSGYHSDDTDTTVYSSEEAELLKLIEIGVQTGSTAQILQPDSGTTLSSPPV

Target: rat ROBO1 lacking the CC3 domain, GFP tagged (rat) (UniProt O55005)
Experiment: co-IP; GFP immunoprecipitation (anti-GFP, protein A/G magnetic beads) from ROBO1/2 siRNA silenced HUVECs transduced with adenoviral ROBO1WT-GFP or ROBO1ΔCC3-GFP; lysis in 50 mM Tris-HCl pH 7.4, 50 mM NaCl, 0.5% Triton X-100; western blot; beads alone as control

binding: binds
Substance: VEGF receptor 2 (from UniProt P35968 20-1356)
